Consider one substance from patent US6593108B1 (priority 1999, dated 2003).

Amino acid sequences for entries named in this document (tags omitted). A change or cut given only in a name is not applied to a line headed by its entry.
UniProt Q969V1: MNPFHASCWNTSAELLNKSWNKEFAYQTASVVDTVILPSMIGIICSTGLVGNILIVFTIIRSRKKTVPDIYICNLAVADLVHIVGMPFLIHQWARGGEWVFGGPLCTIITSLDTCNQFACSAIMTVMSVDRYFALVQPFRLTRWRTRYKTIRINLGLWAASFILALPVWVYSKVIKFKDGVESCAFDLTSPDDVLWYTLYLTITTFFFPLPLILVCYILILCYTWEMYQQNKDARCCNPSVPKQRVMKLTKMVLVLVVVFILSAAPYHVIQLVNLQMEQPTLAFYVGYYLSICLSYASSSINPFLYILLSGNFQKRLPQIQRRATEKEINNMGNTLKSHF
UniProt P20382: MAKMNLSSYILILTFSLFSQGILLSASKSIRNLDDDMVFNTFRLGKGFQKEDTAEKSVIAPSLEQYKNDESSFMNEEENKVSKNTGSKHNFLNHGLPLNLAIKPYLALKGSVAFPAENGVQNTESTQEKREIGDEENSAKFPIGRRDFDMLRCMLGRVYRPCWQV

Results are given in words; binding and its absence hold for the method and conditions named. Some results given as binding are weak or reduced against the parent protein; the word gives no strength.

The target of the assay is HG67 (melanin-concentrating hormone receptor 2) (human) (UniProt Q969V1). The experiment in a line: radioligand binding to transfected HEK293T monolayer cells, 100 pM [125I]-MCH.

“[125I]-MCH (from UniProt P20382 147-165) (peptide)”: the binding result is reported as “binds”.
